Measurements as given in PubChem BioAssay AID504834 (National Center for Advancing Translational Sciences (NCATS), 2011).
About 22,000 (6.9%) of roughly 320,000 compounds were called active. This list was built around the results that the source calls inconclusive (neither active nor inactive); the mix of calls is not that of the screen. The call rests on the fitted dose curve; in most records, active means well fitted inhibition curve with a large enough effect; inconclusive means small, poorly fitted or top-dose-only effect, or another doubt; inactive means no such curve, though single readings can be large or run the other way. Where the call is inconclusive, the potency comes from a doubtful curve fit.

Experiment: Primary qHTS for delayed death inhibitors of the malarial parasite plastid, 96 hour incubation
Conditions: P. falciparum luciferase reporter growth; series mostly up to 28.7 µM; activity change, negative = inhibition: at the top concentration
From the text: The goal of this screen is to discover new antimalarial compounds that act by inhibiting the development of the apicoplast in the malarial parasite Plasmodium falciparum. The biochemical processes that make this organelle essential for erythrocytic stage parasites are not well understood. However, antibiotics such as azithromycin and tetracycline, which target the apicoplast translational machinery, have a potent antimalarial effect.
We have developed a cell-based assay that measures parasite growth based on the expression of an integrated copy of a firefly luciferase reporter. To detect small molecules that cause this "delayed death" phenotype, erythrocytes infected with the luciferase-expressing parasites were incubated with compounds for either one or two generations, corresponding to 48 and 96 hours, respectively. Compounds that inhibit parasite growth in the second generation, but not the first, should be enriched in antimalarials that target the apicoplast. Growth inhibition is detected by a decrease in luciferase activity.
Assay Provider: David Fidock and Eric Ekland, Columbia University
Keywords: NIH Roadmap, MLPCN, MLI, MLSMR, qHTS, NCGC, qHTS, malaria, luciferase, viability
Four microliters of infected erythrocytes (2% hematocrit, 0.05% parasitemia final concentration) in culture medium were dispensed and the plates incubated for 96 hours at 37 C in 5% CO2. Two microliters of luciferase detection reagent was added and luminescence was detected by a ViewLux (PerkinElmer) reader.
On the % scale 0 is the no-effect control and ±100 the full control effect; potency means the concentration at half of the fitted maximal effect.

Row | Compound | Potency | activity change, negative = inhibition
1 | CCc1nnc(NS(=O)(=O)c2ccc(NC(=O)c3ccc(Cl)cc3)cc2)s1 | inconclusive: 3.29 µM [inhibitor, partial curve, poor fit] | –
2 | Cc1cc(CN(C)Cc2cn(C)nc2-c2ccc(Oc3ccccc3)cc2)on1 | inconclusive: 9.28 µM [inhibitor, partial curve, poor fit] | –
3 | CC(=O)Nc1ccc(S(=O)(=O)Nc2cccc(-c3ccc4nncn4n3)c2)cc1 | active: 2.08 µM | –
4 | O=C(Nc1c2c(nn1-c1cccc(Cl)c1)CS(=O)(=O)C2)c1ccc2c(c1)OCO2 | – | inactive: -4.58%
5 | COc1ccc(/C=C2/C(=O)N(c3ccccc3)N=C2C)c(OC)c1 | inconclusive: 16.5 µM [inhibitor, single point] | –
6 | COCCn1c(SCC(=O)Nc2ccc(C)cc2)nc2c(oc3ccccc32)c1=O | – | inactive: 77.2%
7 | COc1ccc(NC(=O)c2cc(S(=O)(=O)N3CCS(=O)(=O)CC3)ccc2Cl)cc1 | inconclusive: 0.0657 µM [inhibitor, full curve, poor fit] | –
8 | COc1cccc(CNC(=O)C2CCCN(S(=O)(=O)c3cnc[nH]3)C2)c1 (configuration not stated) | inconclusive: 0.0828 µM [inhibitor, full curve, poor fit] | –
9 | Fc1ccccc1-c1ccc(/C=N/Nc2nc3ccccc3[nH]2)o1 | active: 0.928 µM | –
10 | COc1ccc(Cn2c(=O)[nH]c3cc(C(=O)NCCCN4CCCCC4)ccc3c2=O)cc1 | inconclusive: 0.0059 µM [inhibitor, full curve, poor fit] | –
11 | O=C(O)c1ccc(N2C(=O)Nc3ccccc3N2O)cc1 | – | inactive: 6.86%
12 | O=C(Oc1ccc2ccc(=O)oc2c1)c1ccccc1 | active: 9.28 µM | –
13 | CC(=O)Nc1ccc(C2=NNC(=Nc3cccc(S(=O)(=O)N(C)C)c3)SC2)cc1 | inconclusive: 11.7 µM [inhibitor, single point] | –
14 | Cc1ccc(C)n1-c1ccc(-c2ccn[nH]2)cc1 | inconclusive: 1.85 µM [inhibitor, partial curve, poor fit] | –
15 | Cc1nc(SC2CC(=O)N(c3ccccc3)C2=O)n[nH]1 (configuration not stated) | inconclusive: 13.1 µM [inhibitor, partial curve, poor fit] | –
16 | CCOC(=O)C1C(=O)OC(C)(C)C1C(CC)C(=O)c1ccccc1 (configuration not stated) | inconclusive: 0.0465 µM [inhibitor, full curve, poor fit] | –
17 | Cn1c(CCN2CCN(c3ccccn3)CC2)nc2cc(NC(=O)COc3ccccc3)ccc21 | inconclusive: 11.7 µM [inhibitor, single point] | –
18 | Cc1cccc([N+](=O)[O-])c1NC(=O)CSc1nnc2ccccn12 | inconclusive: 18.5 µM [inhibitor, single point] | –
19 | Cc1cc(C)n2nc(CNS(=O)(=O)c3c(F)c(F)c(F)c(F)c3F)nc2n1 | inconclusive: 11.7 µM [inhibitor, single point] | –
20 | N#C/C(C(=O)c1ccccc1)=C1/CCCCCN1 | – | inactive: 14.9%
21 | COc1cccc(NC(=O)C2CCC(CNS(=O)(=O)c3ccc4c(c3)CC(C)N4C(C)=O)CC2)c1 (configuration not stated) | inconclusive: 18.5 µM [inhibitor, single point] | –

Row | Compound | Potency | activity change, negative = inhibition
22 | COc1cc(OC)cc(-c2c(C#Cc3ccsc3)c3cc(Br)ccc3n2C)c1 | inconclusive: 14.7 µM [inhibitor, single point] | –
23 | O=C(Cc1ccccc1)c1c[nH]c(C(=O)O)c1 | inconclusive: 1.85 µM [inhibitor, partial curve, poor fit] | –
24 | Cc1csc(NC(=O)c2ccc(C)c(S(=O)(=O)N3CCOCC3)c2)n1 | inconclusive: 11.7 µM [inhibitor, single point] | –
25 | COC(=O)c1c(C)[nH]c(C(=O)CN2C(=O)NC3(CCOc4ccccc43)C2=O)c1C (configuration not stated) | inconclusive: 7.38 µM [inhibitor, partial curve, poor fit] | –
26 | O=C(COc1ccc2c3c(c(=O)oc2c1)CCC3)NCc1ccccn1 | inconclusive: 18.5 µM [inhibitor, single point] | –
27 | CCOc1ccc(S(=O)(=O)Nc2ccn(C)n2)cc1 | – | inactive: -17.8%
28 | CC(C)c1ccccc1NC(=O)COC(=O)CCN1C(=O)/C(=C\C=C\c2ccccc2)SC1=S | inconclusive: 18.5 µM [inhibitor, single point] | –
29 | COc1ccccc1C(=O)NC(CCSC)C(=O)NC1CCCCCC1 (configuration not stated) | inconclusive: 0.522 µM [inhibitor, full curve, poor fit] | –
30 | COc1ccc(S(=O)(=O)NCCc2cc3ccc(C)c(C)c3[nH]c2=O)cc1 | active: 8.28 µM | –
31 | CC(=O)Nc1ccc(S(=O)(=O)N2CCN(C3CCCCCCC3)CC2)cc1 | inconclusive: 13.1 µM [inhibitor, single point] | –
32 | COc1cccc(OCc2cc(C(=O)N(C)Cc3nc(C)cs3)no2)c1 | active: 6.57 µM | –
33 | CC(=O)c1ccc(OCC(=O)N2CCN(S(=O)(=O)c3ccc(Br)s3)CC2)cc1 | inconclusive: 14.7 µM [inhibitor, single point] | –
34 | COc1ccc(C2(CNC(=O)c3ccccc3)CCOCC2)cc1 | inconclusive: 11.7 µM [inhibitor, single point] | –
35 | COc1ccc(C(=O)OCC(=O)c2ccc(S(=O)(=O)N3CCCCC3)cc2)c(OC)c1 | inconclusive: 9.28 µM [inhibitor, single point] | –
36 | COc1ccc(S(=O)(=O)N(CC(=O)NCCC(C)C)c2ccccc2)cc1OC | – | inactive: 10.5%
37 | C[n+]1ccc(C(=O)NCc2ccccc2)cc1 | – | inactive: -9.48%
38 | CCCCCC(=O)NC(=S)Nc1ccc2oc(=O)ccc2c1 | active: 13.1 µM | –
39 | COc1ccc(/C=N/n2cnc3c([nH]c4ccc(F)cc43)c2=O)cc1CN1CCCC1 | inconclusive: 11.7 µM [inhibitor, single point] | –
40 | Cc1cccc(C(=O)NC(C(=O)Nc2cccc(S(=O)(=O)N3CCCC3)c2)C(C)C)c1 (configuration not stated) | inconclusive: 18.5 µM [inhibitor, single point] | –
41 | O=C1Nc2ccccc2N(O)N1c1cc(-c2ccc(Cl)cc2)[nH]n1 | inconclusive: 3.29 µM [inhibitor, full curve, poor fit] | –
42 | CCOC(=O)Nc1ccc(S(=O)(=O)Nc2nccc(C)n2)cc1 | – | inactive: 13.5%

Given with tabs: four of the compounds above.
Row	Compound	Potency	activity change, negative = inhibition
25	COC(=O)c1c(C)[nH]c(C(=O)CN2C(=O)NC3(CCOc4ccccc43)C2=O)c1C (configuration not stated)	inconclusive: 7.38 µM [inhibitor, partial curve, poor fit]	–
27	CCOc1ccc(S(=O)(=O)Nc2ccn(C)n2)cc1	–	inactive: -17.8%
28	CC(C)c1ccccc1NC(=O)COC(=O)CCN1C(=O)/C(=C\C=C\c2ccccc2)SC1=S	inconclusive: 18.5 µM [inhibitor, single point]	–
36	COc1ccc(S(=O)(=O)N(CC(=O)NCCC(C)C)c2ccccc2)cc1OC	–	inactive: 10.5%
